Experimental findings from paper PMC12906810 are described below.

Sequences of proteins named here, by UniProt entry; tags and fusion partners are left off.
UniProt A0A804N6V3, entry or part of it: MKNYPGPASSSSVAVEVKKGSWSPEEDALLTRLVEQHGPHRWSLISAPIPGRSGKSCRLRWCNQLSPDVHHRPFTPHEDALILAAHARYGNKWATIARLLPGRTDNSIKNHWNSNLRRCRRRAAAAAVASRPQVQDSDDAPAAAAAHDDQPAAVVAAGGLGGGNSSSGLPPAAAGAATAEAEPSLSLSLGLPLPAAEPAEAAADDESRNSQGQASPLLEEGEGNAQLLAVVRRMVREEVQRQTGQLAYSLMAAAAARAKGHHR

The series concerns the target ZmMYB127 (Zea mays (inbred B73)) (UniProt A0A804N6V3). The series can be described thus: competition with a labelled probe. As to conditions: EMSA with LightShift Chemiluminescent EMSA kit protocol, 25 °C, 30 min, native PAGE, salt and pH not stated, recombinant protein, protein details: GST (N-terminal, pGEX-6T), label: none (competitor).

The exact form of at least one protein or probe is not confirmed. A negative result means that nothing was seen under these conditions. At least one verdict was read from the data and is not stated in words by the source.

For “CACGCGCCGCCATTTAAAAAACGAATGAGTCCATGG (double strand) [Bt1 promoter mutant]”, the binding result (unlabeled mutant vs biotin Bt1 probe) is listed as “no binding”. As for “GAGAATGAAAGCGAAAAAAAACTCACGGACTCTAAG (double strand) [Ae1 promoter mutant]”, the binding result (unlabeled mutant vs biotin Ae1 probe) is recorded as “no binding”.

As for “GTTGAAATTGATTGAAAAAAACAAATTTTGTTAA (double strand) [z1D2 promoter mutant]”, for the setting “unlabeled mutant vs biotin z1D2 probe”, the binding result was “no binding”. As for “TCTACTAAGCTTGTTAAAAAACGAGAAGAATATTAG (double strand) [z1C1 promoter mutant]”, where the note is “unlabeled mutant vs biotin z1C1 probe”, the binding result was “no binding”.
